These are yes or no findings as the source states them, for the method shown. For some assays here: Binding seen in cells or lysates may run through a third protein. Some binding calls cover weakened binding; strength is not graded here.
Key:
[1] = target: endogenous EGFR of A431 and NCI-H226 cells (human (endogenous in A431 and NCI-H226)) (UniProt P00533); test: proximity ligation; Duolink PLA on fixed A431 cells, endogenous proteins, anti-EGFR (EMab-134) with anti-PTK7, anti-insulin receptor alpha or anti-ADAM17; DMSO, EGF or EGF+gefitinib
EGFR-LgBiT (human) = EGFR-LgBiT (human) (UniProt P00533); test: split reporter; NanoBiT in live HEK293T cells: PTK7-SmBiT or INSR-SmBiT with EGFR-LgBiT; DHFR-LgBiT as control
[2] = target: bls-EGFR extracellular domain (human) (UniProt P00533); test: AlphaScreen or HTRF; biotinylated bls-EGFR extracellular domain and FLAG fusion proteins from the wheat cell-free system mixed in 100 mM Tris-HCl pH 8.0, 1 mg/mL BSA, 100 mM NaCl, 0.1% Tween20, 26 °C 1 h; streptavidin donor and protein A acceptor beads

Sequences of proteins named here, by UniProt entry; tags and fusion partners are left off. A change or cut given only in a name is not applied to a line headed by its entry.
UniProt P78536: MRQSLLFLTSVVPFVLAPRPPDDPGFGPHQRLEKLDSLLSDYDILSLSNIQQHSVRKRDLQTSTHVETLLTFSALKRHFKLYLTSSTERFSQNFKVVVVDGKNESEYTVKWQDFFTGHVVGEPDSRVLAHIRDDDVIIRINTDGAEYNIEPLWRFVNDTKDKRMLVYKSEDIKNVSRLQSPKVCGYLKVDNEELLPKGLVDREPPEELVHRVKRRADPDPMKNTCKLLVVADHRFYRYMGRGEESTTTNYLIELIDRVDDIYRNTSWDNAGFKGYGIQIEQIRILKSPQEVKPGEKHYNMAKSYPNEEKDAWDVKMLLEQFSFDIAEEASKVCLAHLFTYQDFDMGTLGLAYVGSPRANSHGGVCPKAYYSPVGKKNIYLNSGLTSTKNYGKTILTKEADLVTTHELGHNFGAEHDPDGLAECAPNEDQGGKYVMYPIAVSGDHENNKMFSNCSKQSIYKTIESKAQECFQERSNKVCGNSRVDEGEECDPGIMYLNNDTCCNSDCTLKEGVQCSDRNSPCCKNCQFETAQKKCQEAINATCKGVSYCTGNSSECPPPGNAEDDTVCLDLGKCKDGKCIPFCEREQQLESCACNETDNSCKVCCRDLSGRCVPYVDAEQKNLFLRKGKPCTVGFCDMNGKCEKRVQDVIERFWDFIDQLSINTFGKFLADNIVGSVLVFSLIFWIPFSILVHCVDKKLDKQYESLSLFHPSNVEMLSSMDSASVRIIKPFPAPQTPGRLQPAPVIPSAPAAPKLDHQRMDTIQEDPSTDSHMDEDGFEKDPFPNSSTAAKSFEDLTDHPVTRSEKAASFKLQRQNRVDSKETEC

Substance	binding [1]	binding [2]	further results
ADAM17 (disintegrin and metalloproteinase domain-containing protein 17), endogenous (from UniProt P78536 215-824) (enzyme)	binds		
INSR-SmBiT (from UniProt P06213 28-1382) (receptor)			binding (EGFR-LgBiT (human)): binds
FLAG-ADAM17 (from UniProt P78536 1-824) (enzyme)		binds	
FLAG-INSR alpha [28-758aa] (from UniProt P06213 28-758) (domain or fragment)		binds	
INSR (insulin receptor), endogenous (from UniProt P06213 28-1382)	binds		
